Results of single-concentration screens

The chains behind the UniProt entries cited, without tags or fusion partners. Residues count along the entry.
UniProt Q8IDJ8, 1-583: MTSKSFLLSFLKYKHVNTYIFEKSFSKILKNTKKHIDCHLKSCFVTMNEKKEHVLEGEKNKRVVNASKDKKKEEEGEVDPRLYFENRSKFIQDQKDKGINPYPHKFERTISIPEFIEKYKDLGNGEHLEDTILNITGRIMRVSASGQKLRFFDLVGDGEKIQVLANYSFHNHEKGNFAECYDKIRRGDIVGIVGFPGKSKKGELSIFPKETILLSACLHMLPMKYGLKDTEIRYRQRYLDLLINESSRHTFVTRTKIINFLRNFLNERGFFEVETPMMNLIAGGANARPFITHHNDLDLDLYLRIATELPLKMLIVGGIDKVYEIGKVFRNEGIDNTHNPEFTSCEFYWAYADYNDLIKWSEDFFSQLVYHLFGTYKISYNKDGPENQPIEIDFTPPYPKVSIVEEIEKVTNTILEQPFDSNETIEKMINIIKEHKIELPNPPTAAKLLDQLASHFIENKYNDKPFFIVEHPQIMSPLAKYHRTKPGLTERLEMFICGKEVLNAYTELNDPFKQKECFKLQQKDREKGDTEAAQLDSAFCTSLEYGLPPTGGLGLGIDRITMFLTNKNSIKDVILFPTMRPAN
UniProt I6X8D2, whole entry: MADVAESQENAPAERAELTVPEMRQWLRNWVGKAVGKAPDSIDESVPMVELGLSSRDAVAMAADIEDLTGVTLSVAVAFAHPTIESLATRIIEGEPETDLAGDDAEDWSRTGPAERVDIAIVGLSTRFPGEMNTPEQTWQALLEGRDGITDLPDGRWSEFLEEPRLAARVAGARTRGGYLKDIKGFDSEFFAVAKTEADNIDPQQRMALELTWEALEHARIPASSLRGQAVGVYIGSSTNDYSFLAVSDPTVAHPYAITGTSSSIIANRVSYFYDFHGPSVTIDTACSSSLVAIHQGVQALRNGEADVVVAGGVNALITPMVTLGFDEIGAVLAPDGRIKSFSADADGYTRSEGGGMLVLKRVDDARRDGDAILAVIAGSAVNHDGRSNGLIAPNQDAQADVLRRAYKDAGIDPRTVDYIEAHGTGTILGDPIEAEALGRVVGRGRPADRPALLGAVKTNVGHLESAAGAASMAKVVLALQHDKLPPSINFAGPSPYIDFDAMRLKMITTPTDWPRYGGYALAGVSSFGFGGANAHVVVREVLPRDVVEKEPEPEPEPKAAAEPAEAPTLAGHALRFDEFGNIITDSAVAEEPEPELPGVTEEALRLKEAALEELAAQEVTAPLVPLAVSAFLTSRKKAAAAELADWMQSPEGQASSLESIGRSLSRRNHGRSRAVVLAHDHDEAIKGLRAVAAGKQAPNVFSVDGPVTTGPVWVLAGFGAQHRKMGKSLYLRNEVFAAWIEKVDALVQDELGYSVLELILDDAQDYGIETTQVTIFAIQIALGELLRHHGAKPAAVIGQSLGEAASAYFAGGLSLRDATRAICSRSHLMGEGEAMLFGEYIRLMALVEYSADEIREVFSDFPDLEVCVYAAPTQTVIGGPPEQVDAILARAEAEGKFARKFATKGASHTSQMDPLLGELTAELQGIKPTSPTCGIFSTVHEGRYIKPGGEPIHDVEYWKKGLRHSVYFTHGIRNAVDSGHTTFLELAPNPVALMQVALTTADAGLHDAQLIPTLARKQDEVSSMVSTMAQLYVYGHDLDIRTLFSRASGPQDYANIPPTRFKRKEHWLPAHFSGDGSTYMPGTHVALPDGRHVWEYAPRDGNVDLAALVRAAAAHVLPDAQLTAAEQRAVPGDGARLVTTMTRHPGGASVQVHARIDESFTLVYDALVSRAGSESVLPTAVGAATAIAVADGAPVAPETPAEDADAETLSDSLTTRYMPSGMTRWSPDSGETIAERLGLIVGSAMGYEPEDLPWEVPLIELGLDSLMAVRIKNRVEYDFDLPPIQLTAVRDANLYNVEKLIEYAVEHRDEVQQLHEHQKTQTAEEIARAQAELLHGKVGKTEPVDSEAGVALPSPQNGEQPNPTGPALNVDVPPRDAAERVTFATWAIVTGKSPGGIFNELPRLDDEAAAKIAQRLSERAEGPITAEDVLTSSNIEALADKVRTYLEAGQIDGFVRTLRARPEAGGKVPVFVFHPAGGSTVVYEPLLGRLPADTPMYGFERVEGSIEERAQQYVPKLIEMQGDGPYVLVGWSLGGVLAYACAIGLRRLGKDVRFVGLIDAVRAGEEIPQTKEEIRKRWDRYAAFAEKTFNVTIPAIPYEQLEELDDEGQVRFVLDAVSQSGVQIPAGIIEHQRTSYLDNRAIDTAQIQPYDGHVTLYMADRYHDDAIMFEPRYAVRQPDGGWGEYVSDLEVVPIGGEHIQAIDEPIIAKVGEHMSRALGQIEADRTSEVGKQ
UniProt P9WPC5, whole entry: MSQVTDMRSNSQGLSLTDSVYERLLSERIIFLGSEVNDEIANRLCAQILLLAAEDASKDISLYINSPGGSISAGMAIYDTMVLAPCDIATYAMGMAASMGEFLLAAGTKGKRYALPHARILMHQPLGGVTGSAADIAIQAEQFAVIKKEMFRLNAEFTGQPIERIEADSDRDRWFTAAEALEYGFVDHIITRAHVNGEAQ
UniProt P9WPC3, whole entry partner: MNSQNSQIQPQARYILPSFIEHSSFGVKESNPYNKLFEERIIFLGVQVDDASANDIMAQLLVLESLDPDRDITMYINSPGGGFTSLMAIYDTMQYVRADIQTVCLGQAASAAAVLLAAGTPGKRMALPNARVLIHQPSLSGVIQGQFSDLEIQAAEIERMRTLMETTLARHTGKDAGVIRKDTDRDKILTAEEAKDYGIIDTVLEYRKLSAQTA

From ChEMBL document CHEMBL3988442, “University of Dundee, Small-Polar-MMV Screening Library” (2021).

PfKRS1: 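Enzyme assay of the cytosolic lysyl-tRNA synthetase in 384-well plates, read by luminescence. Target: Lysine-tRNA ligase, Plasmodium falciparum 3D7 (UniProt Q8IDJ8). Compounds at 30 µM. Higher reads as stronger inhibition, judged from the few compounds that gave an IC50. Of about 69,000 compounds tested this way, about 49 (0.071%) reached 50% or more in at least one test.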
Pks13 thioesterase: 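Polyketide synthase Pks13, Mycobacterium tuberculosis (UniProt I6X8D2). Enzyme assay of the thioesterase domain of polyketide synthase 13; the read-out is not stated. Tested at 30 µM. The record gives no direction; the compounds picked for IC50 retests had high values, so higher reads as stronger inhibition. About 67,000 compounds were tested under these conditions; 0.46% (about 300) showed 50% or more at least once.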
ClpP1P2: 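ClpP1P2, Mycobacterium tuberculosis (UniProt P9WPC5 and UniProt P9WPC3). Protease assay of ClpP1P2, read by the AMC dye that it sets free. Compounds at 50 µM. Higher reads as stronger inhibition, judged from the few compounds that gave an IC50. Most other retested compounds had strongly negative values. About 69,000 compounds were tested under these conditions; 0.015% (about 10) showed 50% or more at least once.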

Results are given as percent effect.
How 0% and 100% were set is not recorded. Most values in the screen are low, and negative values occur.
This is an unselected part of the compounds tested.
A dash means the value is not listed here; it may have been measured.

Compound	PfKRS1	Pks13 thioesterase	ClpP1P2
CCOCCN1CCN(CC2(O)CCCCC2)CC1	-2.924%	-32.91%	-5.913%
Cc1ccc(CNCCN2CCOCC2)o1	-1.266%	-10.87%	24.81%
Cc1nc(C2(NCc3c(C)nn(C)c3N3CCOCC3)CCC2)no1	0.6214%	-3.562%	2.629%
Cn1cnnc1CN1CCC2(CCCN(C3CCCC3)C2=O)C1 (stereo not drawn)	2.145%	-7.523%	-10.08%
Cc1ccc(CNC(=O)Nc2cc(C(F)(F)F)c[nH]c2=O)cn1	5.64%	4.096%	-1.386%
OCCC1CN(c2ncnc3[nH]cnc23)CCN1Cc1cccs1 (stereo not drawn)	-4.97%	-32.67%	6.996%
CN(CC(=O)N(C)C)Cc1ccc(C#N)cc1F	-7.947%	-0.5144%	-8.3%
Cc1nc(CNC2CCN(Cc3ccccc3)C2)sc1C (stereo not drawn)	3.16%	-16.13%	-12.02%
CC(C)C(=O)N1CCC(c2nc3c([nH]2)CCCNC3=O)CC1	5.232%	-4.373%	-7.277%
CCOc1ccc(CN2CCN(C(=O)c3ccc(C)n3C)CC2)cc1	3.194%	-2.859%	0.57%
Cc1ccc(OCC(C)NS(C)(=O)=O)cc1C (stereo not drawn)	1.626%	21.81%	6.822%
CC(Cn1cccn1)NCC(=O)NCCc1cccs1 (stereo not drawn)	-0.3421%	-	-11.4%
NC(=O)CCCNC(=O)CCc1cc(Br)cs1	3.471%	-2.158%	-3.185%
Cc1ccc2c(c1)C1(CCNCC1)CN2C(=O)C(C)C	-3.437%	-22.1%	13.02%
CN(C(=O)Cc1ccc2c(c1)OCCO2)C1CCCC1	-2.101%	-32.91%	2.744%
Cc1cccc(OC2CCN(Cc3ncc[nH]3)CC2)c1	1.813%	-9.215%	16.87%
CCn1ccnc1CN1CCCN(C(=O)c2ccnc(C)n2)CC1	1.134%	-4.53%	-1.084%
O=C(CCN1CCCCO1)N1CC[C@H](O)[C@@H](O)C1	-1.338%	-13.43%	2.976%
Cc1c(C2SCC(=O)Nc3c2c(O)nn3C(C)C)cnn1C (stereo not drawn)	-0.5718%	5.324%	-4.82%
CCc1[nH]nc(NC(=O)c2cc[nH]n2)c1C	8.878%	-19.21%	-1.522%
Cc1ccc(C(=O)N2Cc3c(CN4CCCCC4)nn(C)c3C2)o1	6.535%	4.14%	1.009%
CN(CC(O)C1CC1)C(=O)c1ccc(-c2nc(C3CC3)n[nH]2)cc1 (stereo not drawn)	1.772%	-14.82%	0.298%
COc1ccccc1CC(=O)N1CCC(NCc2cccnc2)CC1	-6.004%	-5.274%	10.19%
Cc1csc(N2CCN(C(=O)CCc3nccs3)CC2)n1	5.972%	-	8.584%
O=C(CCNC(=O)c1sccc1-c1ccccc1)NC1CCS(=O)(=O)C1 (stereo not drawn)	-1.839%	-19.86%	12.7%
Cc1cc(CN2CCc3nc(C)n(C)c(=O)c3CC2)[nH]n1	4.357%	-7.378%	-1.975%
O=c1n(Cc2cccc(C(F)(F)F)c2)nc2ncccn12	-0.4088%	9.276%	16.57%
O=C1[C@H]2CN(Cc3ccncc3)C[C@H]2CN1c1ccsc1	4.281%	7.707%	6.476%
Cc1cc(F)ccc1N1CCCC(NC2CCSCC2)C1=O (stereo not drawn)	6.434%	-11.02%	-4.711%
CC(O)CN1CCN(C(=O)c2cn(-c3ccccc3Cl)nn2)CC1 (stereo not drawn)	5.746%	-13.8%	-10.25%
CC(=O)NCC1CCN(C(=O)c2c(C)[nH]c3ccc(Cl)cc23)CC1	6.647%	-	-2.77%
CCc1noc(CN2CCCC2c2noc(C3CC3)n2)n1 (stereo not drawn)	3.155%	-13.22%	20.69%
O=C(NCC1CCOC1)c1csc(-c2ccccc2)n1 (stereo not drawn)	0.5052%	-6.157%	9.338%
Cc1cccc(Nc2ccc(C3CCCCN3)cn2)n1 (stereo not drawn)	2.659%	-12.64%	6.007%
CN(C)CCN1CCCC12CCN(C(=O)c1cnccn1)CC2	9.701%	-3.539%	2.734%
Cc1ncsc1-c1cc(C(=O)NCCO)ccn1	-0.9794%	4.942%	-28.99%
Cc1cnn(CCCNC(=O)C2CCCCN2Cc2cccnc2)c1 (stereo not drawn)	-2.519%	-41.74%	-1.273%
Cc1ccc(-c2nnc(CNCCn3cc(C)cn3)o2)cc1	2.358%	15.33%	-3.377%
Cc1n[nH]cc1CNCC1(c2ccc3c(c2)OCO3)CCOCC1	1.119%	-28.43%	7.306%
FC(F)(F)CCc1ccnc(N2CCN(Cc3ccncc3)CC2)n1	3.942%	-36.31%	-2.193%
Cc1nnc2n1CCN(C(=O)c1cc(C)n(-c3ccccn3)c1C)C2	3.639%	-15.71%	4.046%

The first 4 entries again:

Compound,PfKRS1,Pks13 thioesterase,ClpP1P2
CCOCCN1CCN(CC2(O)CCCCC2)CC1,-2.924%,-32.91%,-5.913%
Cc1ccc(CNCCN2CCOCC2)o1,-1.266%,-10.87%,24.81%
Cc1nc(C2(NCc3c(C)nn(C)c3N3CCOCC3)CCC2)no1,0.6214%,-3.562%,2.629%
Cn1cnnc1CN1CCC2(CCCN(C3CCCC3)C2=O)C1 (stereo not drawn),2.145%,-7.523%,-10.08%